Patent publication US20170081698A1, “SURVIVAL ASSAYS FOR METAKARYOTIC STEM CELLS” (priority 2014, published 2017)
At least one compound was matched to its structure with a doubt left.

Columns and labels:
[1] = tested on: HT-29 cells; test: Microscopic cytology of bell shaped metakaryotic nuclei in treated HT-29 cells (Hoechst, DAPI, Feulgen staining); format: cell-based, human
[2] = tested on: HT-29 cells; test: Survival assay counting large colonies of HT-29 cells plated as single cells in T-flasks, with replating of surviving colonies; format: cell-based, human
Description: Large colonies visible to the eye and containing approximately 250 or more cells are enumerated manually or by an electronic colony counter adjusted to recognize colonies of these sizes.
As a practical tactic, the total number of large colonies (>250 cells) are counted and the number appearing on […] to untreated plates identifies the treatment as having killed either or both colonies arising from eukaryotic non-stem cells or from metakaryotic stem cells.
The assay, in one embodiment, involved plating single cells from an exponentially growing HT-29 cell culture in plastic T-flasks and counting the large colonies apparent five weeks after plating. Untreated control flasks provided the total number of immortal colonies and larger mortal colonies.

SMILES: Cc1ccc(-c2cc(C(F)(F)F)nn2-c2ccc(S(N)(=O)=O)cc2)cc1 [Celecoxib]
- aspect of bell shaped nuclei of metakaryotic colonies at the end of treatment ([1]; HT-29 colony assay flasks, end of treatment): did not displayed recognizable deformed pyknotic aspects
- condensation of chromatin in bell shaped metakaryotic nuclei ([1]; HT-29 cultures): do not induce the condensation of chromatin
- nature of surviving colonies (metakaryotic cells, growth upon passaging) ([2]; HT-29, appropriate concentrations and durations of exposure): did not contain discernable metakaryotic cells nor were they capable of continued growth upon passaging
- effect of higher concentrations on cells ([2]; HT-29, two weeks, concentrations higher than the range of the figure): killed all cells
- stem cell number, by fraction of treated cells giving large, growing immortal colonies ([2]; HT-29 and CAPAN-1 lines): reduction of stem cell number
- applicants' interpretation of selectivity (metakaryotic stem cells versus eukaryotic cells) ([2]; HT-29 cell population): exterminated the metakaryotic stem cells but were not cytotoxic to the eukaryotic non-stem cells
- number of immortal colonies ([2]; HT-29 cultures): reduce the number of immortal colonies
